The campaign covered roughly 400,000 compounds. About 13,000 (3.2%) were called active. Inconclusive results, whose numbers are uncertain, are shown with a selection of clear calls. The call rests on the fitted dose curve; in most records, active means well fitted cell-killing curve with a large enough effect; inconclusive means small, poorly fitted or top-dose-only effect, or effect the other way; inactive means flat fitted curve, though single readings scatter. A potency beside an inconclusive call is a rough fit, not a confirmed value.
experiment: qHTS assay for MDR1-selective chemotherapeutics: Primary screen using the drug-selected MDR subline cells KB-V1; details: KB-V1 MDR cells viability, CellTiter-Glo, 72 h; activity change, negative = cytotoxicity: at 46.1 µM (top of the series); further: nearly all actives have a fitted effect of over 60% in size
How it was run: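 Cytotoxicity toward P-gp-expressing KB-V1 cells was determined as loss of CellTiter-Glo luminescence after 72 h at 37 degrees C. Compounds were tested in quantitative HTS format across a concentration range, with curves fitted to normalized data.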
On the % scale 0 is the no-effect control and ±100 the full control effect; potency means the concentration at half of the fitted maximal effect.

Row | SMILES | Potency | activity change, negative = cytotoxicity
1 | CCOC(=O)N(C)C[C@H]1OCc2cnnn2CCCC(=O)N([C@H](C)CO)C[C@H]1C | inactive | –
2 | Cc1n[nH]c(C)c1CCN(C)Cc1cn(C)nc1-c1ccc2c(c1)OCCO2 | inconclusive: 5.8 µM [rising, full curve] | –
3 | CC(C)(C)NC(=O)C(c1ccc(F)cc1)N(C(=O)CCC(=O)Nc1ccccn1)C1CCCC1 (configuration not stated) | inconclusive: 5.8 µM [cytotoxic, partial curve] | –
4 | COc1ccccc1-c1cnc(C(O)c2ccc(C)cc2C)[nH]1 (configuration not stated) | inconclusive: 23.1 µM [cytotoxic, single point] | –
5 | CC1(C(=O)Nc2ccc3c(c2)OCO3)CCN1Cc1csc2ccccc12 (configuration not stated) | inconclusive: 3.26 µM [cytotoxic, partial curve] | –
6 | CC(=O)N1CCN(c2nnc(-c3ccc(C)cc3)c3ccccc23)CC1 | inconclusive: 20.6 µM [cytotoxic, single point] | –
7 | O=C(CNc1cccc(C(F)(F)F)c1)Nc1cccc(S(=O)(=O)N2CCCC2)c1 | inconclusive: 18.4 µM [cytotoxic, single point] | –
8 | O=C(CN1CCCc2ccccc21)N/N=C/c1ccc(O)cc1O | inconclusive: 16.4 µM [cytotoxic, partial curve] | –
9 | COc1ccc(NC(=O)C2CC(=O)N(c3ccccc3F)C2)cc1S(=O)(=O)N1CCCCC1 (configuration not stated) | inactive | –
10 | CCOc1ccc(OCCOC(=O)C2CCN(S(=O)(=O)c3ccc(C)c(C)c3)CC2)cc1 | inactive | –
11 | CC1CCC(NC(=O)CN2CCCN(Cc3ccc(F)cc3Cl)C2=O)CC1 (configuration not stated) | inconclusive: 6.51 µM [cytotoxic, partial curve, poor fit] | –
12 | Cc1ccc(C(=O)Nc2ccc(C(=O)O)cc2NC(=O)c2ccc(C)cc2)cc1 | inconclusive: 14.6 µM [rising, partial curve, poor fit] | –
13 | O=C(NCC1CCCO1)c1cc(NS(=O)(=O)c2cccs2)cc(NS(=O)(=O)c2cccs2)c1 (configuration not stated) | inconclusive: 7.31 µM [rising, partial curve] | –
14 | CC(On1nnc2ccccc21)C(=O)N1CCN(Cc2ccccc2)CC1 (configuration not stated) | inconclusive: 16.4 µM [cytotoxic, single point] | –
15 | O=C(Nc1c(C(=O)c2ccccc2)oc2ccccc12)c1cc(-c2ccccc2O)n[nH]1 | inconclusive: 16.4 µM [cytotoxic, partial curve, poor fit] | –
16 | c1ccc(CSc2nnc(NC3=NCCCCC3)s2)cc1 | inconclusive: 29.1 µM [cytotoxic, single point] | –
17 | Cc1cc(C)c(NC(=O)Cn2c(=O)n(-c3cccc(C(F)(F)F)c3)c(=O)c3c(C)c(C)sc32)c(C)c1 | inactive | –
18 | COc1cc(C2CC(=O)Oc3cc(C)c(Br)c(C)c32)cc(OC)c1OC (configuration not stated) | inactive | –
19 | CN(C(=O)CSc1n[nH]c(-c2cccs2)n1)C1CCS(=O)(=O)C1 (configuration not stated) | inactive | –
20 | O=C(Nc1ccccc1)C1=C(O)CC(c2ccc(Cl)cc2)N2CCN=C12 (configuration not stated) | inconclusive: 5.8 µM [cytotoxic, full curve] | –
21 | O=C(CN(Cc1ccccc1F)C(=O)Cn1nnc(-c2cccs2)n1)NC1CCCCC1 | inactive | –
22 | C=CCOC(=O)/C(=C\C=C\c1ccccc1)NC(=O)c1ccccc1 | inconclusive: 8.2 µM [cytotoxic, partial curve] | –
23 | CC(C)(C)S(=O)(=O)/C(C#N)=C/c1cccn1S(=O)(=O)c1ccccc1 | inactive | –

Row | SMILES | Potency | activity change, negative = cytotoxicity
24 | O=C(c1ccccc1)c1ccc(OCCOCCN2CCN(Cc3ccccc3)CC2)cc1 | inconclusive: 2.91 µM [cytotoxic, full curve] | –
25 | N=c1oc2cc(O)ccc2cc1C(=O)Nc1ccc(Cl)cc1 | inactive | –
26 | COc1ccc(N(CC(=O)Nc2cccc(C)c2C)S(=O)(=O)c2c(C)n[nH]c2C)cc1 | active: 18.4 µM | –
27 | O=C(O)C(Cc1ccccc1-c1ccccc1)C(=O)O | inconclusive: 4.61 µM [rising, partial curve, poor fit] | –
28 | Cc1cc(Br)c(NC(=O)COC(=O)CSc2nnc(-c3ccc(Cl)cc3)o2)c(Br)c1 | inconclusive: 20.6 µM [rising, partial curve, poor fit] | –
29 | CCc1c(C)nc(SCC(N)=O)c(C#N)c1C | inconclusive: 32.6 µM [cytotoxic, partial curve, poor fit] | –
30 | Cc1ccc(S(=O)(=O)NCc2c(-c3ccccc3)c3cc(Cl)ccc3[nH]c2=O)cc1 | inactive | –
31 | Cc1cc(=O)oc2cc(OCC(=O)NCCc3c[nH]c4ccc(F)cc34)ccc12 | inconclusive: 29.1 µM [rising, single point] | –
32 | COCOc1ccc(-c2ncc(OCCN3CCCC3=O)nc2NC(=O)c2cc3ccccc3s2)cc1 | inactive | –
33 | CCCN1/C(=C2/SC(=S)N(CC)C2=O)C=Cc2ccccc21 | inconclusive: 29.1 µM [cytotoxic, single point] | –
34 | CC1=C(C(=O)OCc2ccc3c(c2)OCO3)C(c2ccc(Cl)cc2)NC(=O)N1 (configuration not stated) | active: 11.6 µM | –
35 | CCN(CC)CCN(CC)c1ccc(/C=C/c2ccnc3ccccc23)cc1 | inactive | –
36 | Cc1cc(C)nc(/N=C(\N)Nc2ccc(F)c([N+](=O)[O-])c2)n1 | inconclusive: 29.1 µM [cytotoxic, single point] | –
37 | CCOc1ccccc1CN1[C@@H](c2ccc(OC)cc2)CC(C(=O)OC)(C(=O)OC)[C@H]1c1ccccc1 | inconclusive: 8.2 µM [cytotoxic, partial curve] | –
38 | CC(OC(=O)C1CCCCC1)c1nc2ccccc2[nH]1 (configuration not stated) | active: 20.6 µM | –
39 | COc1ccc(CNC(=O)Cn2c(=O)n(CC(=O)N3CCCCC3)c(=O)c3sccc32)cc1 | inactive | –
40 | Cc1cc(C)c(NC(=O)C(C)n2c(=O)cc(C)c3c(C)nn(-c4ccccc4)c32)c(C)c1 (configuration not stated) | inactive | –
41 | CCc1cc(C(=O)NC2CCCc3c2cnn3-c2cccc(C)c2C)n(C)n1 (configuration not stated) | inconclusive: 0.13 µM [cytotoxic, full curve] | –
42 | CCOc1cccc(NC(=O)C2CC(=O)N(C)C(=Nc3cccc(OC)c3)S2)c1 (configuration not stated) | inconclusive: 25.9 µM [cytotoxic, single point] | –
43 | COc1ccc(C)cc1Nc1n[n+](-c2ccccc2)c(-c2c(OC)ccc3ccccc23)s1 | inconclusive: 23.1 µM [cytotoxic, single point] | –
44 | O=C(NCCc1ccccc1)C1(S(=O)(=O)c2ccc(Cl)cc2)CC1 | inactive | –
45 | O=C1C(Cl)=C(N2CCN(Cc3ccccc3)CC2)C(=O)N1Cc1ccccc1 | inconclusive: 17.8 µM [cytotoxic, single point] | –
46 | O=[N+]([O-])c1cccc2nc3ccccc3c(NCCCn3ccnc3[N+](=O)[O-])c12 | active: 0.731 µM | –

Three structures out of the list, arranged by length of the SMILES, low to high:
Row | SMILES | Potency | activity change, negative = cytotoxicity
22 | C=CCOC(=O)/C(=C\C=C\c1ccccc1)NC(=O)c1ccccc1 | inconclusive: 8.2 µM [cytotoxic, partial curve] | –
5 | CC1(C(=O)Nc2ccc3c(c2)OCO3)CCN1Cc1csc2ccccc12 (configuration not stated) | inconclusive: 3.26 µM [cytotoxic, partial curve] | –
15 | O=C(Nc1c(C(=O)c2ccccc2)oc2ccccc12)c1cc(-c2ccccc2O)n[nH]1 | inconclusive: 16.4 µM [cytotoxic, partial curve, poor fit] | –

(cont.)

Row | SMILES | Potency | activity change, negative = cytotoxicity
47 | COc1ccccc1NC(=S)N1CCC(NC(=O)c2ccco2)CC1 | inconclusive: 14.6 µM [rising, single point] | –
48 | O=C(Cc1ccccc1F)Nc1ccccc1-c1ccccc1 | inconclusive: 13 µM [cytotoxic, partial curve, poor fit] | –
49 | O=C(NC[C@H]1CCCO1)c1cccc2c1C(=O)c1ccc(-c3ccc(F)cc3OCc3ccccc3)cc1S2(=O)=O | – | inconclusive: -4.66%
50 | CCN1CCN(S(=O)(=O)c2ccc(C(=O)Nc3ccccc3)cc2)CC1 | inconclusive: 8.2 µM [cytotoxic, partial curve] | –
51 | Cc1cc2oc3cc(NCCC4CCCN4C)ccc3c(=O)c2cc1C (configuration not stated) | inactive | –
52 | CN(C)S(=O)(=O)c1ccc(NC(=O)COC(=O)CC2CC3CCC2C3)cc1 (configuration not stated) | inconclusive: 16.4 µM [rising, single point] | –
53 | Cc1ccc2cc(CN(CC3CCCO3)S(=O)(=O)c3ccc4c(c3)OCCO4)c(=O)[nH]c2c1C (configuration not stated) | inconclusive: 11.6 µM [cytotoxic, partial curve, poor fit] | –
54 | CCC1=Nc2cc(C(=O)NCC(C)c3ccccc3)ccc2Sc2ccc(C)cc21 (configuration not stated) | inconclusive: 29.1 µM [cytotoxic, single point] | –
55 | Cc1cccc(C(=O)O/N=C(\N)c2ccccn2)c1 | inactive | –
56 | O=C(c1ccncc1)N1CCN(c2ccc(F)cc2)CC1 | inactive | –
57 | CN1CCN(CCOC2Cc3ccccc3Sc3ccc(Cl)cc32)CC1 (configuration not stated) | active: 23.1 µM | –
58 | COc1ccc(C2C3=C(NCCN=C3c3ccccc3)C(=O)N2c2ccccc2)c(OC)c1 (configuration not stated) | inconclusive: 29.1 µM [rising, single point] | –
59 | CCOC(=O)c1ccc(OCC2c3cc(OC)c(OC)cc3CCN2C(=O)c2ccc(S(=O)(=O)N3CCCC3)cc2)cc1 (configuration not stated) | inconclusive: 29.1 µM [rising, single point] | –
60 | Cc1cc2[nH]c3c(c[n+](C)c4ccccc34)c2cc1C | inactive | –
61 | COc1ccc(-n2c(C)c(C(C)=O)c3cc(OC(=O)c4ccc(C)cc4)ccc32)cc1 | inactive | –
62 | CCNC(=S)NNC(=O)CCc1nc2cc(Cl)ccc2n(Cc2ccccc2)c1=O | inconclusive: 7.31 µM [cytotoxic, partial curve, poor fit] | –
63 | CCN(C(=O)C1CCCN1S(=O)(=O)c1cccc2nsnc12)c1ccccc1 (configuration not stated) | inconclusive: 14.6 µM [cytotoxic, partial curve, poor fit] | –
64 | COc1ccc(-c2cc(-c3cccs3)nc(OC)c2C#N)cc1OC | active: 4.61 µM | –
65 | Oc1ccc2oc3c(c2c1/C=N/n1cnnc1)CCCC3 | inconclusive: 18.4 µM [cytotoxic, single point] | –
66 | CCOC(=O)Cn1c(=O)n(CC2CCCO2)c2nc(-c3ccccc3F)nc(C(N)=O)c21 (configuration not stated) | inconclusive: 13 µM [cytotoxic, single point] | –
67 | CC1CN(S(=O)(=O)c2cccc(C(=O)N(CCc3ccccc3)Cc3ccccc3)c2)CC(C)O1 (configuration not stated) | inconclusive: 3.66 µM [cytotoxic, partial curve] | –

Among those listed so far, 2 have a nitro group on carbon.
Row | SMILES | Potency | activity change, negative = cytotoxicity
36 | Cc1cc(C)nc(/N=C(\N)Nc2ccc(F)c([N+](=O)[O-])c2)n1 | inconclusive: 29.1 µM [cytotoxic, single point] | –
46 | O=[N+]([O-])c1cccc2nc3ccccc3c(NCCCn3ccnc3[N+](=O)[O-])c12 | active: 0.731 µM | –

Source: PubChem BioAssay AID1347076 (National Center for Advancing Translational Sciences (NCATS), 2019)
